According to article PMC3283592:
Results are given in words; binding and its absence hold for the method and conditions named. In cells and extracts the contact can be indirect. Some entries that bind do so weakly or less than the wild type.

Amino acid sequences for entries named in this document (tags omitted).
UniProt P63086: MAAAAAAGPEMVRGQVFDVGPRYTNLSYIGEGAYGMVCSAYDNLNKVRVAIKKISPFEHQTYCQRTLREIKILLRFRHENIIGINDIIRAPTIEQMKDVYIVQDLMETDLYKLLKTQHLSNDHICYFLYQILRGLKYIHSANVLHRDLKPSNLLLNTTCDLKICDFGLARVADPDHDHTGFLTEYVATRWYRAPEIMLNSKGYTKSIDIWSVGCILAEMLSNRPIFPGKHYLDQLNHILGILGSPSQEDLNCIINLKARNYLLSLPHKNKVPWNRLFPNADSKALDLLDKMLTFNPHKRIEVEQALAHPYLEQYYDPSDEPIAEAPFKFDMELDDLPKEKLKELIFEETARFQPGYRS
UniProt P21708: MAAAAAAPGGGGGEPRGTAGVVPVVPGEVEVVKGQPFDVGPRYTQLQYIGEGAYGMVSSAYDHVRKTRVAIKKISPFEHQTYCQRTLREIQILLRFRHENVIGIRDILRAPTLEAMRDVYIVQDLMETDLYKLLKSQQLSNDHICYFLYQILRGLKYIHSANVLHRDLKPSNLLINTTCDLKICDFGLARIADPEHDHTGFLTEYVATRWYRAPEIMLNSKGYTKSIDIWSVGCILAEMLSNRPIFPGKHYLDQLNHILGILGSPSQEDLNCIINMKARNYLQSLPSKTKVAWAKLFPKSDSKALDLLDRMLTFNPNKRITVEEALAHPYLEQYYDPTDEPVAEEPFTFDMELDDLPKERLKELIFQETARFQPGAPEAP

Assays:
[1] = target: T1, caveolin-1 (rat (endogenous in A7r5)) (UniProt P41350); assay: proximity ligation; Duolink in situ PLA kit (Olink) on fixed A7r5 cells with a caveolin-1 antibody and an ERK1/2 or phospho-ERK1/2 antibody; cells unstimulated or stimulated 10 minutes with DPBA or FCS
T1 sequence: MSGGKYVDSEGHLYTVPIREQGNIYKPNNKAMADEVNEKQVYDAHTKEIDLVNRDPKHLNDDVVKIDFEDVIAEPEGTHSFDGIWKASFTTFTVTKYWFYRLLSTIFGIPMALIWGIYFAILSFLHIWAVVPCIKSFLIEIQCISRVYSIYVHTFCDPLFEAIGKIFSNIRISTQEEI

[2] = target: T1, caveolin-1 (rat (endogenous in A7r5)); assay: co-IP; A7r5 lysates (0.5% Nonidet-P40 lysis buffer) precipitated with rabbit polyclonal anti-caveolin-1 cross-linked to Protein G-dynabeads, 4°C, 3 hours; blots for phospho-ERK1/2 and total ERK1/2; cells unstimulated or stimulated with DPBA or FCS for 1-60 minutes

Substance	binding [1]	binding [2]
extracellular signal regulated kinase 2 (total ERK2) (from UniProt P63086 1-358) (enzyme)	binds	binds
extracellular signal regulated kinase 1 (total ERK1) (from UniProt P21708 1-380) (enzyme)	binds	binds
